Experimental data as given in PubChem BioAssay AID504467 (National Center for Advancing Translational Sciences (NCATS), 2011).
Among all 330,000 compounds or so, about 7,700 (2.3%) were called active. The shares of active, inactive and inconclusive entries below differ from those in the screen. Calls come from the whole dose curve; as a rule, active = well fitted inhibition curve with a large enough effect; inconclusive = small, poorly fitted or top-dose-only effect, or effect the other way; inactive = flat fitted curve, though single readings scatter. Where the call is inconclusive, the potency comes from a doubtful curve fit.

Assay: qHTS screen for small molecules that inhibit ELG1-dependent DNA repair in human embryonic kidney (HEK293T) cells expressing luciferase-tagged ELG1; note: nearly all actives have a fitted effect of over 55% in size
Conditions: HEK293T ELG1-luciferase reporter, luminescence, 16 h, DNA damage induced by 5-fluorouridine; activity change, negative = inhibition: at 46.1 µM (top of the series)
Summary of the method: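 HEK293T cells expressing luciferase-tagged ELG1 (2,000/well) received 5-Fluorouridine plus compound or DMSO for 16 hr at 37 °C. Luciferase was read by ONE-Glo luminescence after 30 min at room temperature.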
% is set by controls: 0 for no effect and ±100 for the full control effect; potency is the fitted concentration of half-maximal effect.

SMILES | activity change, negative = inhibition | Potency
CCN(CC)CCCNc1oc(-c2ccccc2[N+](=O)[O-])nc1C#N | inactive: 0.782% | –
CCCCOC(=O)Nc1ccc(S(=O)(=O)Nc2nccs2)cc1 | – | inconclusive: 14.6 µM [activator, partial curve, poor fit]
Nc1nc(C(=O)N2CCOCC2)nn1S(=O)(=O)c1ccc(Cl)cc1 | inactive: 3.26% | –
COc1ccc(-c2cc(C(=O)NCCCN3CCOCC3)on2)cc1OC | – | inconclusive: 23.1 µM [activator, single point]
Nc1ccc([N+](=O)[O-])cc1C(=O)NNC(=O)c1ccco1 | inactive: 8.41% | –
O=C(OC1CCOC1=O)c1ccc(-c2nc3ccccc3s2)s1 (stereo not drawn) | – | inconclusive: 6.51 µM [activator, partial curve, poor fit]
COCCCn1c(-c2ccco2)nc2ccccc2c1=O | inactive: -2.18% | –
CCc1ccc(C(=O)COC(=O)c2cccs2)cc1 | – | inconclusive: 8.2 µM [activator, partial curve]
Cc1cc(OCC(=O)NCC(c2ccc(F)cc2)N2CCOCC2)ccc1Cl (stereo not drawn) | inactive: -1.81% | –
COc1ccc(-n2c(C)cc(C(=O)CN3C(=O)NC4(CCCc5sccc54)C3=O)c2C)cc1 (stereo not drawn) | – | inconclusive: 29.1 µM [inhibitor, single point]
Cc1ccc2cccc(NC(=S)NC(=O)c3ccnn3C)c2n1 | – | inconclusive: 29.1 µM [inhibitor, single point]
Cn1c(C(=O)N2CCCC(C(=O)NCCc3ccccc3)C2)cc2sccc21 (stereo not drawn) | – | inconclusive: 20.6 µM [inhibitor, single point]
CC(C)(C)c1ccc(C(=O)NCc2cccnc2)cc1 | – | inconclusive: 10.3 µM [activator, partial curve]
Cc1cnc(NC(=O)CC(C)c2ccccc2)s1 (stereo not drawn) | – | inconclusive: 18.3 µM [activator, single point]
CC(=O)N(C)Cc1ccc(C(=O)CSc2nnc(C3CC3)n2C2CC2)cc1 | inactive: 11.7% | –
Cc1ccc(C(=O)NCCCc2ccccc2)c(C)c1 | – | inconclusive: 10.3 µM [activator, partial curve]
CC1Cc2ccccc2N1S(=O)(=O)c1cccc(C(=O)Nc2cccnc2)c1 (stereo not drawn) | – | inconclusive: 29.1 µM [inhibitor, single point]
COc1cc(/C(C)=N/NC(=O)c2cccc(S(=O)(=O)N3CCCC3)c2)cc(OC)c1OC | inactive: 0.855% | –
COc1cc(-c2cc(C(=O)Nc3nc4ccccc4s3)c3ccccc3n2)cc(OC)c1OC | – | active: 5.17 µM
c1ccc(CCNc2nc3ccccc3s2)cc1 | – | inconclusive: 23.1 µM [activator, partial curve]
Cc1ccc2c(c1)c(/C=C/c1cc[n+](C)cc1)c(C)n2C | – | inconclusive: 8.2 µM [inhibitor, partial curve, poor fit]
Cc1ccc(C(=O)N(CC(=O)NC2CCCC2)c2ccc3c(c2)OCCO3)s1 | – | inconclusive: 23.1 µM [inhibitor, single point]
Cc1ccc(NC(=S)NCC2CCCO2)cc1C (stereo not drawn) | inactive: 24% | –
CC(=O)Nc1ccc(S(=O)(=O)Nc2nc3ccccc3nc2-n2ccc(=NC(=O)c3ccc(F)cc3)cc2)cc1 | inactive: 2.4% | –
CCOC(=O)c1ccsc1NC(=O)CCS(=O)(=O)c1ccccc1 | inactive: -2.02% | –

SMILES | activity change, negative = inhibition | Potency
O=c1c(-c2ccc(O)cc2O)coc2cc(O)cc(O)c12 | – | inconclusive: 29.1 µM [activator, partial curve, poor fit]
CN(C(=O)C1CCOC1)c1nnc(-c2cnccn2)s1 (stereo not drawn) | – | inconclusive: 20.6 µM [activator, partial curve]
CCOC(=O)c1[nH]c2ccc(OC)cc2c1NC(=S)N1CCN(c2ccccn2)CC1 | – | inconclusive: 11.6 µM [inhibitor, partial curve]
CCOc1ccc2nc(SCC(=O)Nc3cccc(S(=O)(=O)NC4=NCCCCC4)c3)[nH]c2c1 | – | inconclusive: 20.6 µM [inhibitor, single point]
NS(=O)(=O)c1ccc(NC(=S)NNC(=O)c2ccc(Br)o2)cc1 | inactive: 1.8% | –
COc1cc(/C=C/C(=O)OCC(=O)Nc2cc(S(=O)(=O)N3CCOCC3)ccc2Cl)cc(OC)c1OC | – | active: 18.3 µM
Cc1cccc(NC(=O)c2nnn(-c3cccc(C(F)(F)F)c3)c2N)c1 | inactive: 57.7% | –
Oc1ccccc1Nc1nc(NCc2ccco2)c2ccccc2n1 | – | inconclusive: 18.3 µM [inhibitor, single point]
CCC(CO)Oc1cc(NCc2ccncc2)c2ncn(C(C)C)c2c1 (stereo not drawn) | inactive: 7.78% | –
O=C(NCSc1ccnc(SCNC(=O)c2ccc(F)cc2)n1)c1ccc(F)cc1 | inactive: 14.5% | –
Cc1cc(C)nc(NC(=O)CCCC(=O)O)c1 | inactive: -6.22% | –
CC(=O)Nc1ccc(S(=O)(=O)NCCSCc2c(Cl)cccc2Cl)cc1 | – | active: 23.1 µM
O=C(NCCCCCCNC(=O)c1ccccc1O)c1ccccc1O | – | active: 10.3 µM
CC(C)NC(=O)C(=O)Nc1ccc2c(c1)N(S(=O)(=O)c1cccs1)CCC2 | – | inconclusive: 29.1 µM [inhibitor, single point]
C=CCN1C(=O)c2cccc3c(N4CCCCC4)ccc(c23)C1=O | inactive: 0.743% | –
COc1ccccc1C(=O)N(Cc1nc(-c2ccc(Cl)cc2)no1)C(C)C | – | inconclusive: 18.4 µM [inhibitor, single point]
Cc1ccc(NC(=O)c2c(Cl)n(C)c3ccccc23)cc1 | – | inconclusive: 13 µM [activator, partial curve]
COc1cccc(C(=O)CSc2nnnn2C2CCCCC2)c1 | – | inconclusive: 23.1 µM [activator, single point]
N#Cc1ccsc1NC(=O)c1ccc(Cl)c([N+](=O)[O-])c1 | – | inconclusive: 6.51 µM [inhibitor, single point]
O=C(c1cccs1)N1CCCC(c2nc3c(nnn3Cc3ccccc3Cl)c(=O)[nH]2)C1 (stereo not drawn) | inactive: -0.786% | –
Fc1ccc(NCc2nnc(SCc3nnc(-c4ccccc4)o3)n2Cc2ccccc2)cc1 | – | active: 15.8 µM
COc1ccc(-c2noc(CCC(=O)N3CCN(c4cccc(C)c4)CC3)n2)cc1 | – | inconclusive: 29.1 µM [inhibitor, single point]
O=C(c1ccccc1)c1ccc2nc(-c3ccco3)c(-c3ccco3)nc2c1 | – | inconclusive: 16.4 µM [activator, partial curve]
COc1cccc(C(=O)NC(=O)Nc2cc(C)[nH]n2)c1 | – | inconclusive: 16.4 µM [activator, partial curve]
CCC(=O)Nc1ccc2nn(-c3ccc(F)cc3)nc2c1 | – | inconclusive: 1.16 µM [activator, partial curve]

Structural class, those above containing a furan ring, fused or not (five)
SMILES | activity change, negative = inhibition | Potency
Nc1ccc([N+](=O)[O-])cc1C(=O)NNC(=O)c1ccco1 | inactive: 8.41% | –
COCCCn1c(-c2ccco2)nc2ccccc2c1=O | inactive: -2.18% | –
NS(=O)(=O)c1ccc(NC(=S)NNC(=O)c2ccc(Br)o2)cc1 | inactive: 1.8% | –
Oc1ccccc1Nc1nc(NCc2ccco2)c2ccccc2n1 | – | inconclusive: 18.3 µM [inhibitor, single point]
O=C(c1ccccc1)c1ccc2nc(-c3ccco3)c(-c3ccco3)nc2c1 | – | inconclusive: 16.4 µM [activator, partial curve]

Next records.

SMILES | activity change, negative = inhibition | Potency
COc1cc(CC(=O)OCC(=O)NCc2ccco2)cc(OC)c1OC | – | inconclusive: 25.9 µM [activator, partial curve, poor fit]
CCn1c(=O)cc(SCC(=O)N2CCOCC2)c2ccccc21 | – | inconclusive: 14.6 µM [activator, partial curve]
O=C(Nc1c(F)cccc1F)c1ccc2c(c1)CCN2S(=O)(=O)c1ccccc1 | – | inconclusive: 18.3 µM [inhibitor, partial curve]
COc1ccc(-c2cc(C(F)(F)F)n3ncc(C(=O)NCc4ccco4)c3n2)cc1 | – | active: 1.3 µM
O=C(NCCc1ccccc1)c1ccc2c(c1)N(Cc1ccccc1)CCS2 | – | inconclusive: 8.2 µM [activator, partial curve]
Cc1cc(C)n2nc(SCC3COc4ccccc4O3)nc2n1 (stereo not drawn) | – | inconclusive: 20.6 µM [activator, partial curve]
Oc1ccc(/C=N/N2CCCCC2)cc1O | – | inconclusive: 13 µM [activator, partial curve]
COc1ccc(CSC2=CS(=O)(=O)c3ccccc3N2)cc1 | – | inconclusive: 16.4 µM [inhibitor, partial curve, poor fit]
C=CCOc1ccc(C2C(C#N)=C(N)N(Nc3ccccc3)C3=C2C(=O)CCC3)cc1OC (stereo not drawn) | inactive: -1.51% | –
Cc1ccc(C(=O)O/N=C/c2c(C)nn(C)c2Cl)cc1 | inactive: -2.33% | –
O=c1[nH]c(CN2CCN(c3ccccc3O)CC2)nc2scc(-c3ccccc3Cl)c12 | – | active: 20.6 µM
Cc1cc(C)n(-c2nc(-c3ccc(Cl)c(Cl)c3)cs2)n1 | – | inconclusive: 2.24 µM [activator, partial curve, poor fit]
CCCCOc1ccccc1-c1ccccc1CN1[C@@H](C(C)C)COCCS1(=O)=O | inactive: -3.78% | –
O=C(C[C@H]1C[C@H](C(=O)N2CCCCC2)[C@@]2(CCc3ccccc3)c3[nH]c4cc(-c5ccco5)ccc4c3CCN2C1=O)NCCC1=CCCCC1 | inactive: 12.5% | –
NC(=O)c1ccccc1NC(=O)CN1CCN(Cc2ccc(Cl)cc2Cl)CC1 | – | active: 10.3 µM
Cc1occc1C(=O)N/N=C/c1ccc(Br)s1 | – | inconclusive: 16.4 µM [activator, partial curve]
C/C(=N\NC(=O)C(=O)Nc1ccc(C)cc1)c1ccncc1 | inactive: 3.93% | –
CCOc1ccc2nc(NC(=O)C(CCSC)NS(=O)(=O)c3cccs3)sc2c1 (stereo not drawn) | – | inconclusive: 18.4 µM [inhibitor, single point]
Cc1ncoc1C(=O)Nc1ccc(Oc2ccccc2)cc1 | – | inconclusive: 16.4 µM [activator, partial curve]
CC(=O)/C(C#N)=C1\NC(=O)C(Cc2ccc(C)c(Cl)c2)S1 (stereo not drawn) | inactive: -6.05% | –
CC(C)(C)N=Cc1c(O)ccc2oc3c(c12)CCCC3 | – | inconclusive: 20.6 µM [inhibitor, partial curve, poor fit]
COc1ccc(OCc2ccc(/C=N\NC(=O)c3sccc3C)o2)cc1 | – | inconclusive: 25.9 µM [activator, single point]
Cc1ccc(C(=O)/C=C2\NCCNC2=O)cc1 | – | inconclusive: 4.11 µM [activator, partial curve]
